# Data from patent publication US20240125767A1, “METHOD FOR EVALUATING DRUG TOXICITY” (Public University Corporation Yokohama City University, priority 2019, published 2024).
# Tested on: DILI patient-derived organoid (liver organoid from iPS cells 16-24)
# Method: (§1) Each of iPS cells derived from human healthy person (1383D2; Kyoto University iPS Research Institute) and iPS cells derived from patients with drug-induced liver injury (16-24; Yokohama City University) were cultured at 5% CO2 and 37° C. for 3 days in a medium obtained by adding 1% B-27 Supplements (GIBCO), BMP4 (25 ng/ml) and CHIR99021 (8 μM) to DMEM/F-12 (Gibco) (10 ml), to induce mesodermal cells.
# Each of iPS cells derived from human healthy person (1383D2; Kyoto University iPS Research Institute) and iPS cells derived from patients with drug-induced liver injury (16-24; Yokohama City University) were cultured at 5% CO2 and 37° C. for 5 days in a medium obtained by adding Wnt3a (50 ng/mL) and activin A (100 ng/ml) to a basal medium RPMI (FUJIFILM Corporation) (2 ml), to induce endodermal progenitor cells.
# as §1, with “μM) to a basal mixed medium DMEM/F-12 (Gibco)” for “μM) to DMEM/F-12 (Gibco)”, “induce mesodermal progenitor cells. […]” for “induce mesodermal cells.”, “progenitor cells. […]” for “mesodermal cells.”
compound,measurement,value
"CC1=C(C(=O)O)N2C(=O)[C@@H](NC(=O)[C@H](N)c3ccccc3)[C@H]2SC1 [Cephalexin, cephalexin]","Toxicity to liver organoid produced using cells derived from a DILI patient, co-cultured with blood cells (result in words)",DILI was not observed
